Reference: PubChem BioAssay AID1224830 (NIAID, 2016)

Screen: 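Host factors that control LPS-induced TNF expression in human macrophages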 (primary screen)
Cells: human THP-1 monocytic leukaemia cells, TNF dual-luciferase reporter clone, PMA-differentiated to macrophage-like cells
Reagents: siRNA pool against human genes, 50 nM
Duration: LPS for 4 h, given about 3 days after siRNA transfection
Challenge: bacterial LPS (TLR4 ligand), 10 ng/ml
Measurement: 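TNF firefly reporter luminescence divided by renilla, normalised to the plate median, then turned into a robust z-score for each replicate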
Direction: TNF reporter robust z-score: higher = stronger TNF reporter response to LPS
Rule for the call: 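a well is active when its z-score exceeds 2.8 or falls below -1.5; control wells carry no call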
The deposit covers about 18,000 reagents; this is an unselected part. About 2,900 of all reagents (16%) count as active. 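Calls are made per well; low scores hint the gene aids the LPS response, high scores that it dampens it.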 Repeated entries: four replicate wells of each siRNA pool.

| target | TNF reporter robust z-score | Call |
| --- | --- | --- |
| ZNF589 | -0.6 | inactive |
| ZNF589 | -0.27 | inactive |
| ZNF589 | 0.89 | inactive |
| ZNF589 | -0.36 | inactive |
| SFMBT2 | 0.8 | inactive |
| SFMBT2 | 0.31 | inactive |
| SFMBT2 | 2.58 | inactive |
| SFMBT2 | 1.66 | inactive |
| GPN2 | -0.17 | inactive |
| GPN2 | 1.01 | inactive |
| GPN2 | 1.09 | inactive |
| GPN2 | 0.23 | inactive |
| PANX2 | – | inactive |
| PANX2 | -0.01 | inactive |
| PANX2 | 0.48 | inactive |
| PANX2 | -0.37 | inactive |
| CDKN2B | -0.62 | inactive |
| CDKN2B | 0.43 | inactive |
| CDKN2B | 0.24 | inactive |
| CDKN2B | 1.07 | inactive |
| PRY | -0.43 | inactive |
| PRY | -0.42 | inactive |
| PRY | -0.31 | inactive |
| PRY | 0.02 | inactive |
| CASP5 | -0.41 | inactive |
| CASP5 | -0.12 | inactive |
| CASP5 | -0.46 | inactive |
| CASP5 | -0.14 | inactive |
| NIPAL1 | -0.7 | inactive |
| NIPAL1 | -1.29 | inactive |
| NIPAL1 | 0.13 | inactive |
| NIPAL1 | -0.35 | inactive |
| SNX5 | -0.17 | inactive |
| SNX5 | 0.03 | inactive |
| SNX5 | -0.89 | inactive |
| PDLIM2 | -0.26 | inactive |
| PDLIM2 | -0.14 | inactive |
| PDLIM2 | -0.17 | inactive |
| PDLIM2 | -0.53 | inactive |
| USP14 | 0.71 | inactive |
| USP14 | 0.45 | inactive |
| USP14 | 0.21 | inactive |
| USP14 | -0.01 | inactive |
| DPP9 | 3.14 | active |
| DPP9 | 0.94 | inactive |
| DPP9 | -0.36 | inactive |
| DPP9 | 1.07 | inactive |
| POGZ | -0.9 | inactive |
| POGZ | -1.19 | inactive |
| POGZ | 0.82 | inactive |
| POGZ | -0.95 | inactive |
| VPS18 | -1.53 | active |
| VPS18 | -0.12 | inactive |
| VPS18 | -0.38 | inactive |
| VPS18 | 0.45 | inactive |
| VAV3 | 0.06 | inactive |
| VAV3 | 0.9 | inactive |
| VAV3 | 0.03 | inactive |
| VAV3 | 0.23 | inactive |
| ZNF33B | -0.94 | inactive |
| ZNF33B | -0.91 | inactive |
| ZNF33B | -0.86 | inactive |
| ZNF33B | -0.9 | inactive |
| ANKRD45 | 0.7 | inactive |
| ANKRD45 | -0.84 | inactive |
| ANKRD45 | -1.14 | inactive |
| ANKRD45 | -0.81 | inactive |
| CLEC5A | 1.41 | inactive |
| CLEC5A | 1.05 | inactive |
| CLEC5A | -0.75 | inactive |
| CLEC5A | -0.44 | inactive |
| IQCB1 | -0.17 | inactive |
| IQCB1 | 0.92 | inactive |
| IQCB1 | -0.72 | inactive |
| ADCYAP1 | 0.04 | inactive |
| ADCYAP1 | 0.47 | inactive |
| ADCYAP1 | -0.19 | inactive |
| ADCYAP1 | -0.17 | inactive |
| TXNL4A | -0.16 | inactive |
| TXNL4A | 0.1 | inactive |
| TXNL4A | -0.02 | inactive |
| TXNL4A | -0.36 | inactive |
| RSPO3 | -0.89 | inactive |
| RSPO3 | -1.14 | inactive |
| RSPO3 | -1.29 | inactive |
| RSPO3 | -0.38 | inactive |
| CDKL3 | 1.46 | inactive |
| CDKL3 | 0.66 | inactive |
| CDKL3 | 1.19 | inactive |
| CDKL3 | 2.15 | inactive |
| ADSS2 | -0.57 | inactive |
| ADSS2 | -0.33 | inactive |
| ADSS2 | -0.18 | inactive |
| ADSS2 | -0.04 | inactive |
| CCDC197 | 3.1 | active |
| CCDC197 | 2.97 | active |
| CCDC197 | 4.02 | active |
| CCDC197 | 0.04 | inactive |
| LOC652859 (retired record) | -0.01 | inactive |
| LOC652859 (retired record) | 0.95 | inactive |
| LOC652859 (retired record) | 0.84 | inactive |
| LOC652859 (retired record) | 0.93 | inactive |
| FRZB | -1.13 | inactive |
| FRZB | 0.5 | inactive |
| FRZB | -0.24 | inactive |
| FRZB | -0.18 | inactive |
| C9orf152 | 0.87 | inactive |
| C9orf152 | 0.14 | inactive |
| C9orf152 | 1.19 | inactive |
| C9orf152 | 1.13 | inactive |
| NKRF | 5.65 | active |
| NKRF | 4.24 | active |
| NKRF | 1.78 | inactive |
| NKRF | 0.96 | inactive |
| SAP18 | -1.9 | active |
| SAP18 | -0.58 | inactive |
| SAP18 | -0.9 | inactive |
| SAP18 | -0.57 | inactive |
| DHTKD1 | 0.11 | inactive |
| DHTKD1 | -0.91 | inactive |
| DHTKD1 | -1.07 | inactive |
| DHTKD1 | 0.71 | inactive |
| C22orf15 | -1.66 | active |
| C22orf15 | 3.77 | active |
| C22orf15 | -1.23 | inactive |
| C22orf15 | -0.46 | inactive |
| CACNA2D4 | 1.24 | inactive |
| CACNA2D4 | 1.36 | inactive |
| CACNA2D4 | 1 | inactive |
| CACNA2D4 | 1.99 | inactive |
| TMEM176A | -0.91 | inactive |
| TMEM176A | -0.45 | inactive |
| TMEM176A | -0.42 | inactive |
| TMEM176A | -0.27 | inactive |
| RAB3IL1 | 1.69 | inactive |
| RAB3IL1 | 1.51 | inactive |
| RAB3IL1 | 2.26 | inactive |
| RAB3IL1 | -0.94 | inactive |
| SERPINB1 | -1.43 | inactive |
| SERPINB1 | -1.19 | inactive |
| SERPINB1 | -1.45 | inactive |
| SERPINB1 | -1.38 | inactive |

Entries above whose target name starts with N or n:
| target | TNF reporter robust z-score | Call |
| --- | --- | --- |
| NIPAL1 | -0.7 | inactive |
| NIPAL1 | -1.29 | inactive |
| NIPAL1 | 0.13 | inactive |
| NIPAL1 | -0.35 | inactive |
| NKRF | 5.65 | active |
| NKRF | 4.24 | active |
| NKRF | 1.78 | inactive |
| NKRF | 0.96 | inactive |
